Measured values as given in article PMC3798271.
No constants are given. Whether binding was seen depends on the method and setting. In cells and extracts the contact can be indirect. Some results given as binding are weak or reduced against the parent protein; the word gives no strength.

Sequences of proteins named here, by UniProt entry; tags and fusion partners are left off.
UniProt O74752: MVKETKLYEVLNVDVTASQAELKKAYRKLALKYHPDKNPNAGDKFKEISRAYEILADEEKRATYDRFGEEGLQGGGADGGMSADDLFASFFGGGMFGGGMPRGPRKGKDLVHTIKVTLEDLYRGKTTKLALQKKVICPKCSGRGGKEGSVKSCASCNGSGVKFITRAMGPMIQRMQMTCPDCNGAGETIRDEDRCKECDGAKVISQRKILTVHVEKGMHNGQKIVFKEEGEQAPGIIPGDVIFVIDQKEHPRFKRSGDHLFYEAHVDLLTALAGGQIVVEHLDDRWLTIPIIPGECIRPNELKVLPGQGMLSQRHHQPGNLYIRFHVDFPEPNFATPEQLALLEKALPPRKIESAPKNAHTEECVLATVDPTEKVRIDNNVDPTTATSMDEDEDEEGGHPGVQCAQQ
UniProt O59855: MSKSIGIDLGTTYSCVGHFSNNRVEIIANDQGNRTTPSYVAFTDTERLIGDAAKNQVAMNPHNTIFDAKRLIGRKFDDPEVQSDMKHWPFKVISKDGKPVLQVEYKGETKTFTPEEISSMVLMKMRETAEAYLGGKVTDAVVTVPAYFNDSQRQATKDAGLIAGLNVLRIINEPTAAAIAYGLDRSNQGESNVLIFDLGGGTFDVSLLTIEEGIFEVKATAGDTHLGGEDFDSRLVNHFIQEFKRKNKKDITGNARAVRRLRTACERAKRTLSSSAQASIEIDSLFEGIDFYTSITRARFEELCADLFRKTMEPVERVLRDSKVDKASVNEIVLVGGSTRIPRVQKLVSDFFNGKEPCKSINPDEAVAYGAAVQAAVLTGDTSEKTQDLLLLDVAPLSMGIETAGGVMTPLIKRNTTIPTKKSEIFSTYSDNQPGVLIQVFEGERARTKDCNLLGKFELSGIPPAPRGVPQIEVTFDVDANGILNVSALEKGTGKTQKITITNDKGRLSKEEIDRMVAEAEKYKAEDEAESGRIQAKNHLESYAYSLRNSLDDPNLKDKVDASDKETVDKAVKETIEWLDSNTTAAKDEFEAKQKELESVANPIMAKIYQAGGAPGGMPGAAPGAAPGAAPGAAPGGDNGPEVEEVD
UniProt Q10265: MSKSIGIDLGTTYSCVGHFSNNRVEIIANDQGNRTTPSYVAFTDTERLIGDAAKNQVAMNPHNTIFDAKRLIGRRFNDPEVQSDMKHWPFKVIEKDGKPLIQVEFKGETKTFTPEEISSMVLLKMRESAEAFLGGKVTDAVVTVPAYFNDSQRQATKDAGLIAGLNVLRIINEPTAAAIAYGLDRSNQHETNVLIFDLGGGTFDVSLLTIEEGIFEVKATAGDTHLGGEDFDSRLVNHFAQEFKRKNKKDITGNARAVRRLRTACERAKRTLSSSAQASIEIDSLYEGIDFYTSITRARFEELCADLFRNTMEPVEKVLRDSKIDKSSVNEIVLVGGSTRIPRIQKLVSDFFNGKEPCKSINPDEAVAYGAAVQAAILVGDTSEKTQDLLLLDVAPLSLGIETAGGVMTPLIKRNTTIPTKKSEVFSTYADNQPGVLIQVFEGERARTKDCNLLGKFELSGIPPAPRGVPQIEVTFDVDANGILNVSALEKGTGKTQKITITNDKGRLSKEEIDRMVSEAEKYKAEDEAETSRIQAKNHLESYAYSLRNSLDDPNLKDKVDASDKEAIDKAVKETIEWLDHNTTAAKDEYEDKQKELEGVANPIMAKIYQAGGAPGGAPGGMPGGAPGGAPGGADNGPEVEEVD

Target: DnaJ chaperone Mas5 (Schizosaccharomyces pombe) (UniProt O74752)
Experiment: co-IP; lysates of log-phase S. pombe cells in Buffer A (phosphate, 150 mM NaCl, 2 mM EDTA, 50 mM NaF, 0.1 mM Na3VO4, protease inhibitors); anti-myc antibodies and Protein A (methods) or Protein-G beads, 1 hour; 6 washes; blots with anti-myc and anti-GFP (Fig. 4D) or anti-HA (Fig. S4A)

binding | Substance
binds | Ssa2 (from UniProt O59855 1-647)
binds | Ssa1 (from UniProt Q10265 1-644)
